Assay results from article PMC7819943, “Rice protein-binding microarrays: a tool to detect cis-acting elements near promoter regions in rice”.
The list shows a part of the results.

Amino acid sequences for entries named in this document (tags omitted).
UniProt Q0JBA9, entry or part of it: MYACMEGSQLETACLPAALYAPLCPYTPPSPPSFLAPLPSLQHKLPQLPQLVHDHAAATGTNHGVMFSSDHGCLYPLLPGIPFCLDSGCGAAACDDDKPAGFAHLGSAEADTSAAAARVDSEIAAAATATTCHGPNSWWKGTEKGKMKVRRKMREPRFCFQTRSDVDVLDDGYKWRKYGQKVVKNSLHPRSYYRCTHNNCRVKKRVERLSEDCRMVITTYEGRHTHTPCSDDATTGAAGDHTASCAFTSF

Biological target: OsWRKY34 (Oryza sativa, UniProt Q0JBA9 1-250)
Assay: protein-binding microarray (RPBM); PBS, 2% BSA, 51.3 ng/ul salmon testes DNA, 50 uM zinc acetate, 200 nM TF, 25 C, 1 h; high values mean tight binding
Details: protein: recombinant; tags: N-terminal polyhistidine and DsRed monomer fusion (pET32a); label: CyDye5-dUTP incorporated in the synthesized complementary strand; 3' TTTTT single-stranded linker to array surface; dsDNA, one strand shown
Outline: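 In PBS with 2% BSA, salmon testes DNA and 50 µM zinc acetate, 200 nM protein was incubated on a custom Agilent array at 25 °C for 1 h and then washed off. The array had been made double-stranded by primer extension with Cy5-dUTP and blocked with 2% BSA. The proteins were transcription factors fused N-terminally to polyhistidine and DsRed, expressed in E. coli BL21-CodonPlus and purified on Ni–NTA. The binding signal is per-feature fluorescence intensity (arbitrary units) from an Axon 4000B scanner.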

Sequence | binding signal
AGTTTTACAATTTGTCTATTCTCTTTCACACCAGGATCCTCGGAGTCACCTAGTGCAG | 8600 fluorescence intensity (a.u.)
AGTGTCCATTATGGTGTTTCTTAATTGTCTTTTGCTTTTTCGGAGTCACCTAGTGCAG | 11100 fluorescence intensity (a.u.)
AACCACCACTACACATCTACTTCTGGGCCACATGGGCCAACGGAGTCACCTAGTGCAG | 8230 fluorescence intensity (a.u.)
CTTGCCAACTTGTCCCAAATTTCCTTCGGCGTTTTTTCATCGGAGTCACCTAGTGCAG | 8080 fluorescence intensity (a.u.)
TGTTTTCTGAATGCGAAATCGATCCCCGCTATTATATATTCGGAGTCACCTAGTGCAG | 8430 fluorescence intensity (a.u.)
CGTCGATGTCCTCCGCCGCGAGCGCCTTGCTCTGCACCTTCGGAGTCACCTAGTGCAG | 8110 fluorescence intensity (a.u.)
GGGTGGGCAATTCACTTTATATTCCAACACTCCCCGCCTCCGGAGTCACCTAGTGCAG | 8860 fluorescence intensity (a.u.)
CGGTTGTCACACACACTTTTCTGCCTTCAACTGTATCGCCCGGAGTCACCTAGTGCAG | 9940 fluorescence intensity (a.u.)
ACTGATGTTTATGCCGTTCATAATTGGTTGGTTGATGCATCGGAGTCACCTAGTGCAG | 9530 fluorescence intensity (a.u.)
GTCCGCACTGCCCCATGGACGGCCCTGCCTGTTTCATATTCGGAGTCACCTAGTGCAG | 9930 fluorescence intensity (a.u.)
CGTCGTACTGCCACTGCCGCCGCCGATCCGGTCCATACTCCGGAGTCACCTAGTGCAG | 9120 fluorescence intensity (a.u.)
CTCTCTCTCTGATTGTTCTCTTCTGCTTGCCTCTTCCATGCGGAGTCACCTAGTGCAG | 8340 fluorescence intensity (a.u.)
TCGTCCGCTGCAGCCGCTCGCTAGCTAGTAGCTATAGCTACGGAGTCACCTAGTGCAG | 8160 fluorescence intensity (a.u.)
GTCGGTGTAATATTTCTTTTGTTATAACAAATTTGTTTTGCGGAGTCACCTAGTGCAG | 8330 fluorescence intensity (a.u.)
CTTATTCCTTACTTAAATACTTAGGGGTTTTCATTATACTCGGAGTCACCTAGTGCAG | 8200 fluorescence intensity (a.u.)
ACGACGACGACGACGACGCAACCCCGCGGCGCGCGCCGGCCGGAGTCACCTAGTGCAG | 8430 fluorescence intensity (a.u.)
AGAGATCACTAATTATTTACGCATCAATTCGTCATTTCTTCGGAGTCACCTAGTGCAG | 9580 fluorescence intensity (a.u.)
TTGCTTGCCGATCATCCAATGCCTTGTCGGATCTTCCTCTCGGAGTCACCTAGTGCAG | 12100 fluorescence intensity (a.u.)
CTTTGGGTTCTTGTTTGTCGCGTTGAATGTGGTTCACAACCGGAGTCACCTAGTGCAG | 10100 fluorescence intensity (a.u.)
GGGTCTATTTTTATAATTTTTTTGGCCGATAGATTATTTCCGGAGTCACCTAGTGCAG | 10800 fluorescence intensity (a.u.)
GCACGCACTCCCACACCGCACACTCGCCAGTTAGCCCTTACGGAGTCACCTAGTGCAG | 13900 fluorescence intensity (a.u.)

Sequence | binding signal
GTGGGAGATCATAATGCTGGCGACGTGGTGGTTCTTGACACGGAGTCACCTAGTGCAG | 8070 fluorescence intensity (a.u.)
TTTTCTTTTTCAATGTATGATTCTGTTGACTTTTCAGATACGGAGTCACCTAGTGCAG | 11600 fluorescence intensity (a.u.)
CTTCGTCTCTCTCGTCTCGGCTTCGCTACGTTTTTTTTTTCGGAGTCACCTAGTGCAG | 13300 fluorescence intensity (a.u.)
ACCTTCTTACCCACTCCACCCACTGACAACGTTGGCCACCCGGAGTCACCTAGTGCAG | 9360 fluorescence intensity (a.u.)
TGTTTTGGCTTTGGTCCCTTGCTTTTCTTTGGAGGTTGGACGGAGTCACCTAGTGCAG | 10400 fluorescence intensity (a.u.)
CATTCGCTCTAGCCTTCCTCATCGTTGACAGTGCGTGGCACGGAGTCACCTAGTGCAG | 9600 fluorescence intensity (a.u.)
GTCCAAGCCCAATCCACCACCCCGCAGCTCAACCTGGCTCCGGAGTCACCTAGTGCAG | 8040 fluorescence intensity (a.u.)
GTACTCGTGTCTTCATCAGTTATTCCACTCAAAACCGCATCGGAGTCACCTAGTGCAG | 8630 fluorescence intensity (a.u.)
CTTTGTGTTGCTTCTTCTCTTGCAAATTTTTACGTGCATCCGGAGTCACCTAGTGCAG | 8840 fluorescence intensity (a.u.)
CCAACCACCAAATCATCCCACACAAACACCACAAGCTCATCGGAGTCACCTAGTGCAG | 8720 fluorescence intensity (a.u.)
ATTTAGCGTTTATTTTCCGTCAAAATTTTTATATTACGCACGGAGTCACCTAGTGCAG | 10600 fluorescence intensity (a.u.)
CTCATTTGCTCTCCGTCTGCCTGCCATGCGCCACGCCGCCCGGAGTCACCTAGTGCAG | 9250 fluorescence intensity (a.u.)
ATTTCGTGCGGCTTGTCACATCCTGCTTGTTTCATGTACCCGGAGTCACCTAGTGCAG | 9580 fluorescence intensity (a.u.)
ACTTTCTAGCATTGCCTACATTCATATATATATATATATACGGAGTCACCTAGTGCAG | 10900 fluorescence intensity (a.u.)
CGCGGCGTCTACGGTTTCTTTCTCTTTCTCTCTCTTTTTTCGGAGTCACCTAGTGCAG | 10200 fluorescence intensity (a.u.)
TTTGTTGTCTCATTTATTTTTCTACGGGTTATCATCCGAACGGAGTCACCTAGTGCAG | 8220 fluorescence intensity (a.u.)
AGGGTTGTGATTGGTTGGGAAGAGAATGTTGGTAGATAAGCGGAGTCACCTAGTGCAG | 9400 fluorescence intensity (a.u.)
TGTGTCATATCCAGTTCTAGATTCGTTTTTTTCGGGACGGCGGAGTCACCTAGTGCAG | 8270 fluorescence intensity (a.u.)
TCCAACATCAACAGCCAGCTTACGGTAACTTCTCTCACGGCGGAGTCACCTAGTGCAG | 9150 fluorescence intensity (a.u.)
TAAATCTCCAGCCAGGAATTCCCGTTGCTATCTCTAGTCTCGGAGTCACCTAGTGCAG | 10600 fluorescence intensity (a.u.)
GCAACACCTTGACTTCTCGCATTTACAAACTATATACATACGGAGTCACCTAGTGCAG | 9190 fluorescence intensity (a.u.)

Sequence | binding signal
CTCTCATCCGATTCCTGCGTTTTTCCTGTGGTTCAATCATCGGAGTCACCTAGTGCAG | 17900 fluorescence intensity (a.u.)
AATTGGTTTCTGCTTCTCGCGTTGACAATTTCACTATGCTCGGAGTCACCTAGTGCAG | 11100 fluorescence intensity (a.u.)
CATTTTTCAGGCATGTGATGCTTCTTGGGGAGGATTTCATCGGAGTCACCTAGTGCAG | 8030 fluorescence intensity (a.u.)
TCATATGGGTTGGTGTATGTGTATTGTGAGTCTGTGTTTGCGGAGTCACCTAGTGCAG | 8300 fluorescence intensity (a.u.)
ATATTTCTCTCTTCACGCATCCGTGTCTTCATCCTTGATCCGGAGTCACCTAGTGCAG | 8720 fluorescence intensity (a.u.)
CTTCGGTTATACTTTTGCTTTGGAATTGTGTTCCTTTGCTCGGAGTCACCTAGTGCAG | 9420 fluorescence intensity (a.u.)
TTACTCCTGGACCAGCATTGCTACAACTATCATTTTCTCCCGGAGTCACCTAGTGCAG | 9840 fluorescence intensity (a.u.)
CTGCTCCGGCACTCTCTCCATCTGCGCCGCCGTTTGCCTCCGGAGTCACCTAGTGCAG | 10400 fluorescence intensity (a.u.)
CACTGTCACCCAATCCACTCAGCTGCTCTTGCTCTTCCTGCGGAGTCACCTAGTGCAG | 10000 fluorescence intensity (a.u.)
ATCGCTCGCTCGCGCGCCACACTCCTCGAACCACCACCACCGGAGTCACCTAGTGCAG | 9620 fluorescence intensity (a.u.)
GTATGTCCTCTGTAATAAAATCTCGCGTGCCATAACTATTCGGAGTCACCTAGTGCAG | 10000 fluorescence intensity (a.u.)
TCCACTCTCTGCGCGCTTTTTTCTGACAAAACTGATGAGACGGAGTCACCTAGTGCAG | 8090 fluorescence intensity (a.u.)
CGCCGACTGTCGCCTCGACCCACCGGCTCTCCGTCCGCTTCGGAGTCACCTAGTGCAG | 9600 fluorescence intensity (a.u.)
TCGGTCTCCACGCGCTTTCACCTCCGTATTTTACTCGCGCCGGAGTCACCTAGTGCAG | 9250 fluorescence intensity (a.u.)
TATGTTCATTTCCTTATTTGCCTCTCGTCATGTCTCTTGACGGAGTCACCTAGTGCAG | 10200 fluorescence intensity (a.u.)
ATATGCGGTTCGTTTTGCTTTGTTCTTCCCTTTTTCTTTCCGGAGTCACCTAGTGCAG | 13200 fluorescence intensity (a.u.)
GCCCAACGTTTGACCGTCCGTCTTATTTAAAAAAATTATGCGGAGTCACCTAGTGCAG | 8220 fluorescence intensity (a.u.)
TACCCTACTATCATTTGCGATTTGGGATCAGCATCTCCTACGGAGTCACCTAGTGCAG | 9110 fluorescence intensity (a.u.)
GATAATCTGTTACTTGTATGGGGCTCAAACTGTTCTCATTCGGAGTCACCTAGTGCAG | 10300 fluorescence intensity (a.u.)
ATTTTTAAAAAAGAAAAGTGTGTGGGTGTGGGCTATTAATCGGAGTCACCTAGTGCAG | 11100 fluorescence intensity (a.u.)
CCCCTTTTCGCGCTATCCTTTTCTTGGTCCCGCACGGCGGCGGAGTCACCTAGTGCAG | 9160 fluorescence intensity (a.u.)

A section from further up, for reference:
Sequence | binding signal
GTGGGAGATCATAATGCTGGCGACGTGGTGGTTCTTGACACGGAGTCACCTAGTGCAG | 8070 fluorescence intensity (a.u.)
TTTTCTTTTTCAATGTATGATTCTGTTGACTTTTCAGATACGGAGTCACCTAGTGCAG | 11600 fluorescence intensity (a.u.)
CTTCGTCTCTCTCGTCTCGGCTTCGCTACGTTTTTTTTTTCGGAGTCACCTAGTGCAG | 13300 fluorescence intensity (a.u.)
ACCTTCTTACCCACTCCACCCACTGACAACGTTGGCCACCCGGAGTCACCTAGTGCAG | 9360 fluorescence intensity (a.u.)
TGTTTTGGCTTTGGTCCCTTGCTTTTCTTTGGAGGTTGGACGGAGTCACCTAGTGCAG | 10400 fluorescence intensity (a.u.)

(list continues)

Sequence | binding signal
CTTTTCGGACACAGATCTTGCTCACGCCGCTAGTGCTTGTCGGAGTCACCTAGTGCAG | 9820 fluorescence intensity (a.u.)
TCTGCATTGACCATCCTAGTTGGGTTTCTGTTGCTGGTTACGGAGTCACCTAGTGCAG | 9830 fluorescence intensity (a.u.)
GGGGTATTTTCTAGTTATCTGAACATGTTATCCCTCTCCTCGGAGTCACCTAGTGCAG | 8320 fluorescence intensity (a.u.)
CTCCCACCGCCACCGCTCCGCGCCGCCGTCCCCACCTCCGCGGAGTCACCTAGTGCAG | 8950 fluorescence intensity (a.u.)
GACTCGTGCCGTTCGCCCCGACCCACCACCGCTCTCGATGCGGAGTCACCTAGTGCAG | 8550 fluorescence intensity (a.u.)
TTCCTGTTCCCGTGTGTTTTCATTGCTCGGCGGCGGGATCCGGAGTCACCTAGTGCAG | 8810 fluorescence intensity (a.u.)
TCAAGGGAGATGGAGGGTTGCAGCGGCGGCGGAGGGGCGGCGGAGTCACCTAGTGCAG | 12100 fluorescence intensity (a.u.)
CAACCCATCTCTACCGTCCGTCTCCATCCGACACCTTCCGCGGAGTCACCTAGTGCAG | 8160 fluorescence intensity (a.u.)
TAGAAGCACCTCAAATACCACCATACTTTTTATTTTTCGTCGGAGTCACCTAGTGCAG | 9260 fluorescence intensity (a.u.)
CGACGAGCCGCTGCATGCCCTGGGTCCCGTACTAGTACTACGGAGTCACCTAGTGCAG | 9680 fluorescence intensity (a.u.)
CGGGGATGGAGGTGGTGGTGAGGCTGGCGACGGCGGGCCGCGGAGTCACCTAGTGCAG | 12100 fluorescence intensity (a.u.)
GTCCCATCTCGCCGAGCGCTGGCCTCACTATCGTCGACTCCGGAGTCACCTAGTGCAG | 10700 fluorescence intensity (a.u.)
ACAGTAGCAACCCTGTTTTGACTCCTTTTTTGGCTGCCCACGGAGTCACCTAGTGCAG | 9240 fluorescence intensity (a.u.)
GGCGCGGGCGGGGTGGTTAGTTTGCGCGCTAATTACAGTTCGGAGTCACCTAGTGCAG | 12300 fluorescence intensity (a.u.)
ATCAGATGCCCAGCCCGACCACTTAACCGCAACGTCATCTCGGAGTCACCTAGTGCAG | 9220 fluorescence intensity (a.u.)
ATATACATGTGCATCTCTTGTCCTGTATATATGTCCTTTTCGGAGTCACCTAGTGCAG | 8130 fluorescence intensity (a.u.)
TTCACGCAACTCCATTAAAGTCTAACCATTGACTTTTTTCCGGAGTCACCTAGTGCAG | 10600 fluorescence intensity (a.u.)
TTGGTTGATTTTGATTGCTTTGCTCCTTTTCTGACTTGCTCGGAGTCACCTAGTGCAG | 9410 fluorescence intensity (a.u.)
GAATTCGTGACCTGACTCACTCACATACTATCAAAAATTTCGGAGTCACCTAGTGCAG | 8290 fluorescence intensity (a.u.)
TTGGGTGGCGTGTCCATGGCCATCATCGCCATGGCCTTGGCGGAGTCACCTAGTGCAG | 8300 fluorescence intensity (a.u.)
CTTGTATTACACTACATAATACCACCACCTTTTTCCAGCTCGGAGTCACCTAGTGCAG | 8220 fluorescence intensity (a.u.)
